No constants are given. Whether binding was seen depends on the method and setting. A result given as binding can be weak or reduced; the word gives no strength.

The experiment concerns the target Cynomolgus Sema3A (cynomolgus). Briefly: SPR, comparison with Samsung scFv 1-3.

B1: Antibody of the invention (clone I) (antibody, human IgG1, kappa, L234A L235A, V domains shown)
VH: EVQLVESGGGLVQPGGSLRLSCAASGFTFSSYYMSWVRQAPGKGLEWVSTIIKSGGYAYYPDSVKDRFTISRDNSKNTLYLQMSSLRAEDTAVYYCVRGGQGAMDYWGQGTTVTVSS
VL: EIVLTQSPATLSLSPGERATLSCRASQSIGDYLHWYQQKPGQAPRLLIKYASQSISGIPARFSGSGSGTDFTLTITSLEPEDFAVYYCQQGYSFPYTFGGGTKLEIKR
notes: also called clone 1; anti-Sema3A antibody of the invention
In the case of B1, the binding result is “binds”.

Source of the values: patent US20260078175A1 (Boehringer Ingelheim, published 2026).
